In the experiment the target is T1, CCAAT/enhancer binding protein beta (chicken (endogenous in liver)) (UniProt Q05826).
T1 sequence: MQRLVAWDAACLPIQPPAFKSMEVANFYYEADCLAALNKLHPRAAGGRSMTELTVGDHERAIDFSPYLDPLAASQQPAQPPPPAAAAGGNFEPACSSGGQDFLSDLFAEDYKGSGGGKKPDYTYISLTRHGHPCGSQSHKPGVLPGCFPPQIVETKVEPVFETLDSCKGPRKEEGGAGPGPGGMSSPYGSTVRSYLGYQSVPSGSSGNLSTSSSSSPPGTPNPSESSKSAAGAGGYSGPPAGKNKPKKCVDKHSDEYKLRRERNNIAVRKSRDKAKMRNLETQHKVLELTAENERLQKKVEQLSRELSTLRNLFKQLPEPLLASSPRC
Put plainly: co-IP; 200 μg protein extracts from frozen chicken liver, pre-cleared with protein A/G agarose beads, immunoprecipitated with 4 μg anti-C/EBPβ antibody overnight at 4°C; normal rabbit IgG as negative control; Western blot. (Immunoblotting shows a protein as a band on a membrane.)

The chains behind the UniProt entries cited, without tags or fusion partners.
UniProt Q6DV79: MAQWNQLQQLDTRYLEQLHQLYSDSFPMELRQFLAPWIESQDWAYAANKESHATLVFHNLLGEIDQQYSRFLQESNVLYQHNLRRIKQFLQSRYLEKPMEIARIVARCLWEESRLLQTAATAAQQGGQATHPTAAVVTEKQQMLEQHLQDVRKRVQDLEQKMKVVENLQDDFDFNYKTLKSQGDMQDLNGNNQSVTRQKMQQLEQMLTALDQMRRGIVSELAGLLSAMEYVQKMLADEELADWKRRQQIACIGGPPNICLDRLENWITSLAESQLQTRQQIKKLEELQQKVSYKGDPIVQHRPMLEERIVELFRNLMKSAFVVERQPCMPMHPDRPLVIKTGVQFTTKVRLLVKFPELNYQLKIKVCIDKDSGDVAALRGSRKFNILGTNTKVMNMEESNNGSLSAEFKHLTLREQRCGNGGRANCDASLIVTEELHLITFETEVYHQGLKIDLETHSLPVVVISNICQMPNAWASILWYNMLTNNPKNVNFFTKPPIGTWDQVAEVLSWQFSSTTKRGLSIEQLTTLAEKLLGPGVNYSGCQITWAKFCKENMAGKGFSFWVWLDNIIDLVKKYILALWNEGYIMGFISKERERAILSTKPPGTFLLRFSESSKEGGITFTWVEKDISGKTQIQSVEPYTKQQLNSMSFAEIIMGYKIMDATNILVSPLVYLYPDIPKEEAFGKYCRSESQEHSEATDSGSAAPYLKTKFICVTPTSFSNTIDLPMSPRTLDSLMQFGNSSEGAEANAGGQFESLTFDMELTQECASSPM

These are yes or no findings as the source states them, for the method shown. Binding seen in cells or lysates may run through a third protein. Some binding calls cover weakened binding; strength is not graded here.

Consider “phosphorylated signal transducer and activator of transcription 3 (from UniProt Q6DV79 1-771)”, for which the binding result is “binds”.

Values taken from article PMC3892065.
